Where “and” joins values, the source holds several entries; their conditions need not be identical. Identical values can stand only once. Counter-ions that a name gives are not always drawn. ± gives the standard deviation of the averaged measurements. Some of the results follow. Part of the spread comes from offsets between plates or batches.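 Assay uses culture-activated primary human stellate myofibroblasts; lipid droplet recovery indicates inactivation. Measured: proportion of Hoechst-counted cells over a plate-specific Bodipy cutoff, duplicate wells, DMSO and nortriptyline as per-plate negative and positive controls. A hit scores, control-normalized, above the plate's top-tenth-percentile nortriptyline wells or ranks among its three best wells. Final well concentrations not reported.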

In the assay the test system is primary human hepatic stellate cells (donor 1). In words: percent Bodipy-positive cells; higher = more lipid droplet accumulation. The following applies: 48 h.
Setting [1] is: library stock concentration: 10 mM.
Setting [2] is: library stock concentration: 3.33 mM.
Setting [3] is: library stock concentration: 1 mM.
Where [4] appears, read: library stock concentration: 400 uM.
The mark [5] stands for this setting: library stock concentration: 2 mM.
The mark [6] stands for this setting: library stock concentration: 5.2 mM.
Where [7] appears, read: library stock concentration: 80 uM.

Turning to `NCCCCC(=O)O` [5-aminopentanoic acid hydrochloride], under setting [1], the “percent Bodipy-positive cells” value was 19.3 ± 4.1%. Same read-out and setting: the value for `NCCCCC(=O)O` [5-Aminovaleric acid hydrochloride] was 46.4 ± 8.3%. As for `c1ccc(CC2=NCCN2)cc1` [Tolazoline HCl], the “percent Bodipy-positive cells” value under setting [2] worked out at 13.9 ± 3% and the “percent Bodipy-positive cells” value under setting [1] worked out at 32.6 ± 12%.

On to `c1ccc(CC2=NCCN2)cc1` [Tolazoline hydrochloride], for which the “percent Bodipy-positive cells” value was found to be 38.8 ± 22%. Besides, the “percent Bodipy-positive cells” value under setting [1] was 32.5 ± 12%.

For the molecule `c1ccc(CC2=NCCN2)cc1` [Priscoline], under setting [1], the “percent Bodipy-positive cells” value amounted to 37.2 ± 5.5%. The same measure, in the same setting: to `OCCN1CCN(CCCN2c3ccccc3Sc3ccc(C(F)(F)F)cc32)CC1` [Fluphenazine hydrochloride] belongs 73.9 ± 16%. On to `OCCN1CCN(CCCN2c3ccccc3Sc3ccc(C(F)(F)F)cc32)CC1` [Fluphenazine dihydrochloride], for which the “percent Bodipy-positive cells” value amounted to 69.3 ± 8.1%. For the same molecule, the “percent Bodipy-positive cells” value under setting [1] stood at 100%. Turning to `OCCN1CCN(CCCN2c3ccccc3Sc3ccc(C(F)(F)F)cc32)CC1`, under setting [1], the “percent Bodipy-positive cells” value was determined as 91.1 ± 7.9%. Take `CC(C)(Oc1ccc(CCNC(=O)c2ccc(Cl)cc2)cc1)C(=O)O` [bezafibrate]: the “percent Bodipy-positive cells” value (library stock concentration: 13.8 mM) is 13.3 ± 11%. Take `CC(C)(Oc1ccc(CCNC(=O)c2ccc(Cl)cc2)cc1)C(=O)O` [Bezafibrate]: the “percent Bodipy-positive cells” value stood at 30.6 ± 7.7%. In addition, the “percent Bodipy-positive cells” value under setting [3] stood at 10.5 ± 3.2%. The “percent Bodipy-positive cells” value under setting [2] turned out to be 10.4 ± 4.3%. Besides, under setting [1], the “percent Bodipy-positive cells” value is 26.4% and 30.4% and 27.1%. With `CCCCCCCCCCCCCC(=O)N[C@H](C)[C@@H](O)c1ccccc1` [D-erythro-MAPP], under setting [3], the “percent Bodipy-positive cells” value was 10.4% and 5.97%.

In the case of `COc1cc2c(Nc3ccc(Br)cc3F)ncnc2cc1OCC1CCN(C)CC1` [Vandetanib  (ZD6474, Zactima) (0.4 mM)], the “percent Bodipy-positive cells” value under setting [4] was found to be 80.6 ± 8.3%. With `COc1cc2c(Nc3ccc(Br)cc3F)ncnc2cc1OCC1CCN(C)CC1` [Vandetanib  (ZD6474, Zactima) (2 mM)], the “percent Bodipy-positive cells” value under setting [5] was 98.41 ± 0.24%.

`CC1=C(/C=C/C(C)=C/C=C/C(C)=C/C=C/C=C(C)/C=C/C=C(C)/C=C/C2=C(C)CCCC2(C)C)C(C)(C)CCC1` [Beta Carotene]: the “percent Bodipy-positive cells” value is 6.91 ± 0.34% under setting [2] and 12.1 ± 2.3% under setting [1].

On to `O=S(=O)(c1cccc2c(Cl)cccc12)N1CCCNCC1`, for which the “percent Bodipy-positive cells” value under setting [1] was found to be 84.9 ± 7.5%.

As for `COC(=O)CCCCCCC1C(O)CC(O)C1CCC(O)C#Cc1ccccc1F` (stereo not given), under setting [3], the “percent Bodipy-positive cells” value turned out to be 8.3 ± 1.4%. Take `CC(C(=O)O)c1ccc(CC2CCCC2=O)cc1` (stereo not given) [loxoprofen]: under setting [1], the “percent Bodipy-positive cells” value stood at 23.7 ± 2.9%. Same read-out and setting: the value for `CC(C(=O)O)c1ccc(CC2CCCC2=O)cc1` (stereo not given) was 11 ± 0.65%; that for `CC[C@H]1OC(=O)[C@H](C)[C@@H](O[C@H]2C[C@@](C)(OC)[C@@H](O)[C@H](C)O2)[C@H](C)[C@@H](O[C@@H]2O[C@H](C)C[C@H](N(C)C)[C@H]2O)[C@](C)(O)C[C@@H](C)C(=O)[C@H](C)[C@@H](O)[C@]1(C)O` was 55.2 ± 2%. Regarding `CC[C@H]1OC(=O)[C@H](C)[C@@H](O[C@H]2C[C@@](C)(OC)[C@@H](O)[C@H](C)O2)[C@H](C)[C@@H](O[C@@H]2O[C@H](C)C[C@H](N(C)C)[C@H]2O)[C@](C)(O)C[C@@H](C)C(=O)[C@H](C)[C@@H](O)[C@]1(C)O` [Erythromycin], the “percent Bodipy-positive cells” value came out at 33.2 ± 1.3%. Further, the “percent Bodipy-positive cells” value under setting [2] stood at 11.3 ± 1.6%. Moreover, the “percent Bodipy-positive cells” value under setting [1] was 15.3% and 4.45%. Turning to `CCOC(=O)N1CCC(=C2c3ccc(Cl)cc3CCc3cccnc32)CC1`, the “percent Bodipy-positive cells” value under setting [1] came out at 20.2 ± 10%. As for `CCOC(=O)N1CCC(=C2c3ccc(Cl)cc3CCc3cccnc32)CC1` [Loratidine], the “percent Bodipy-positive cells” value under setting [1] was found to be 14.9 ± 0.22%.

Take `CCOC(=O)N1CCC(=C2c3ccc(Cl)cc3CCc3cccnc32)CC1` [Loratadine]: the “percent Bodipy-positive cells” value under setting [2] came out at 9.1 ± 0.79%; the “percent Bodipy-positive cells” value under setting [6] is 12.8% and 12%; the “percent Bodipy-positive cells” value under setting [1] is 21.6% and 40%. On to `O=C(NOCC1CC1)c1ccc(F)c(F)c1Nc1ccc(I)cc1Cl`, for which the “percent Bodipy-positive cells” value is, setting by setting: under setting [7], 8.65 ± 0.82%; under setting [4], 8.58% and 11.5%; under setting [5], 6.01% and 22.2%; under setting [2], 13.7 ± 10%. `Nc1nc(F)nc2c1ncn2[C@@H]1O[C@H](COP(=O)(O)O)[C@@H](O)[C@@H]1O` [Fludarabine Phosphate]: the “percent Bodipy-positive cells” value was determined as 64.1 ± 10% under setting [2] and 83 ± 5.1% under setting [1]. On to `COc1[nH]c2ccc(F)cc2c1C(=O)OCC1CCN(CCNS(C)(=O)=O)CC1.NS(=O)(=O)O`, for which the “percent Bodipy-positive cells” value under setting [1] came out at 36.6 ± 8.4%. Regarding `CC1(C)CCC(c2ccc(Cl)cc2)=C(CN2CCN(c3ccc(C(=O)NS(=O)(=O)c4ccc(N[C@H](CCN5CCOCC5)CSc5ccccc5)c(S(=O)(=O)C(F)(F)F)c4)cc3)CC2)C1` [ABT-263 (Navitoclax)], the “percent Bodipy-positive cells” value under setting [2] worked out at 7 ± 0.17% and the “percent Bodipy-positive cells” value under setting [1] is 11.3 ± 1.9%. The like results for `O=C(COc1ccc(C(=O)c2ccccc2)cc1)NC1CCN(Cc2ccccc2)CC1` [AdipoRon] were, in that order, 39.2 ± 1.6% and 61.3 ± 12%. With `NC(=O)c1ccccc1O` [Salicylamide], the “percent Bodipy-positive cells” value under setting [1] is 15.2 ± 1%. Same read-out and setting: to `COc1ccc(CC(C)NCC(O)c2ccc(O)c(NC=O)c2)cc1` (stereo not given) [Formoterol] belongs 68.6 ± 16%. Still for that read-out and setting: the value for `COc1ccc(CC(C)NCC(O)c2ccc(O)c(NC=O)c2)cc1` (stereo not given) [Formoterol hemifumarate] was 11.7 ± 8.1%; that for `COc1ccc(CC(C)NCC(O)c2ccc(O)c(NC=O)c2)cc1` (stereo not given) was 13.7 ± 0.19%.

`COc1ccc(CC(C)NCC(O)c2ccc(O)c(NC=O)c2)cc1` (stereo not given) [Formoterol Hemifumarate]: the “percent Bodipy-positive cells” value is 12.3 ± 2.5% under setting [2] and 35.2 ± 14% under setting [1]. For the molecule `O=C(OCCN1CCOCC1)C1(c2ccccc2)CCCCC1` [PRE-084 hydrochloride], under setting [1], the “percent Bodipy-positive cells” value was 7.621 ± 0.069%. `O=C(OCCN1CCOCC1)C1(c2ccccc2)CCCCC1`: the “percent Bodipy-positive cells” value under setting [1] was 44.4 ± 15%. On to `Cc1ccc2c(c1)C(=O)C1(O)CCN(c3ccccc3)C1=N2` (single isomer, unassigned; (-)) [(-)-Blebbistatin], for which the “percent Bodipy-positive cells” value reads like this: under setting [7], 13.7 ± 6.8%; under setting [4], 12 ± 2.8%; under setting [3], 8.47 ± 0.44%; under setting [5], 9.18 ± 2.3%; under setting [2], 26.9 ± 3.3%; under setting [1], 43.2 ± 28%. As to `CC(C)C[C@H](NC(=O)[C@H](Cc1ccccc1)NC(=O)c1cnccn1)B(O)O` [Bortezomib], the “percent Bodipy-positive cells” value under setting [6] turned out to be 84 ± 6.4%. In the case of `CC(C)C[C@H](NC(=O)[C@H](Cc1ccccc1)NC(=O)c1cnccn1)B(O)O` [Bortezomib (PS-341)], the “percent Bodipy-positive cells” value under setting [2] turned out to be 81.8 ± 1.3% and the “percent Bodipy-positive cells” value under setting [1] is 92.1 ± 2.6%. For `CS(=O)(=O)c1ccc(C(=O)Nc2ccc(Cl)c(-c3ccccn3)c2)c(Cl)c1` [Vismodegib (GDC-0449)] the same measures were 9.85 ± 0.16% and 17.1 ± 6.5%.

As for `O=C1C(c2c(O)[nH]c3ccccc23)=Nc2ccccc21`, the “percent Bodipy-positive cells” value under setting [1] came out at 35.7 ± 1.5%. As for `O=C1C(c2c(O)[nH]c3ccccc23)=Nc2ccccc21` [Indirubin], the “percent Bodipy-positive cells” value is, setting by setting: under setting [2], 7.18 ± 2%; under setting [1], 30.8 ± 9.4%.

Take `CNc1nc(-c2ccc3c(N)n[nH]c3c2)cc(N2C[C@@H](C(=O)NC3CCCCC3)CC[C@H]2C)n1`: the “percent Bodipy-positive cells” value under setting [7] stood at 11.4 ± 0.88%; the “percent Bodipy-positive cells” value under setting [4] stood at 7.78 ± 2.9%; the “percent Bodipy-positive cells” value under setting [5] was 10.39 ± 0.052%; the “percent Bodipy-positive cells” value under setting [2] was 15.1 ± 10%; the “percent Bodipy-positive cells” value under setting [1] is 79% and 62%. Turning to `CCCCCCCC/C=C\CCCCCCCC(=O)c1nc2ncccc2o1` [Oleoyl Oxazolopyridine], under setting [3], the “percent Bodipy-positive cells” value was determined as 6.41 ± 1.1%. In the case of `COc1ccc(-c2coc3cc(O)ccc3c2=O)cc1` [Formononetin], under setting [2], the “percent Bodipy-positive cells” value was determined as 8.92 ± 3.9%. On to `CN1CCN(S(=O)(=O)c2ccc(-c3cnc(N)c(C(=O)Nc4cccnc4)n3)cc2)CC1`, for which the “percent Bodipy-positive cells” value under setting [2] came to 91.9 ± 2.6%.
